Publication PMC8828901

Tests used:
Assay in all cases: EMSA
Sox9 (TNT-Sox9) = settings: 40 mM Hepes pH 7.9, 75 mM KCl, 0.2 mM EDTA, 0.5 mM DTT, 150 ng/ul poly(dI-dC), 5% Ficoll, room temperature, 30 min, 7 ug TNT protein, protein translated in vitro, label: 32P
Nkx2.1 (TNT-Nkx2.1) = settings: weak, non-specific: unrelated oligo competes as well as related; 40 mM Hepes pH 7.9, 75 mM KCl, 0.2 mM EDTA, 0.5 mM DTT, 150 ng/ul poly(dI-dC), 5% Ficoll, room temperature, 30 min; 7 ug TNT protein; protein translated in vitro; label: 32P
Foxe1 (TNT-Foxe1) = settings: specific; 40 mM Hepes pH 7.9, 75 mM KCl, 0.2 mM EDTA, 0.5 mM DTT, 150 ng/ul poly(dI-dC), 5% Ficoll, room temperature, 30 min; 7 ug TNT protein; protein translated in vitro; label: 32P
Pax8 (TNT-Pax8) = settings: specific; 40 mM Hepes pH 7.9, 75 mM KCl, 0.2 mM EDTA, 0.5 mM DTT, 150 ng/ul poly(dI-dC), 5% Ficoll, room temperature, 30 min; 7 ug TNT protein; protein translated in vitro; label: 32P

AGGCTTCTATTGTCTTGTTGCTTT (double strand) [Nkx2.1 promoter Sox9 site]
binding result (Sox9 (TNT-Sox9); weaker, non-specific): binds more weakly

GGCCCTCAGAACAAAGTTCTCACT (double strand) [Pax8 promoter Sox9 site]
binding result (Sox9 (TNT-Sox9); strong, specific): binds

GTCTGGAAACTTCAGTGGGAGCGA (double strand) [Sox9 promoter Nkx2.1 site -15/-7]
binding result (Nkx2.1 (TNT-Nkx2.1)): binds more weakly

TCATGACCTTTGTATTAATC (double strand) [Foxe1 promoter Sox9 site]
binding result (Sox9 (TNT-Sox9); strong, specific): binds

TGAGTCACCCAAACATTTCTTCCA (double strand) [Sox9 promoter Foxe1 site]
binding result (Foxe1 (TNT-Foxe1)): binds

TTTCGGTCCAGGAACTTTTCTTTG (double strand) [Sox9 promoter Pax8 site]
binding result (Pax8 (TNT-Pax8)): binds

For at least one entry, the source does not settle the construct or the ends of the probe. For part of these data: Weaker means in comparison with the reference protein, sequence or condition of that experiment.
